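Malaria parasite (P. falciparum) lines kept in red blood cells; parasite DNA is measured by SYBR Green fluorescence after lysis, 72 h after compound addition. Each compound was titrated across a series from about 0.000037 to 29 µM. The number is the fitted AC50, the concentration giving a half-maximal change in signal; a lower value means higher potency, whether the curve shows a decrease or an increase. Calls follow the curve class and fit quality: every row here is inconclusive, covering signal-raising curves and weak, poorly fitted, partial or highest-dose-only inhibition curves.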

Values are in µM. Every entry below has the call inconclusive. These entries are mostly ones the record files as inconclusive; other results of the assay are not listed here. A potency from a partial, single-point or poor curve is only a rough figure. Some entries filed as inconclusive have a full curve.

| # | structure | tested on / at | fitted potency (µM) | curve as filed |
|---|---|---|---|---|
| 1 | `CCC(=O)c1ccc2c(c1)N(CCCN1CCN(CCO)CC1)c1ccccc1S2` | CP238 | 10 | inhibitor, single point |
| 2 | `CCC(=O)c1ccc2c(c1)N(CCCN1CCN(CCO)CC1)c1ccccc1S2` | CP325 | 13.46 | inhibitor, single point |
| 3 | `CCC(=O)c1ccc2c(c1)N(CCCN1CCN(CCO)CC1)c1ccccc1S2` | TAB109 | 14.13 | inhibitor, single point |
| 4 | `CCC(=O)c1ccc2c(c1)N(CCCN1CCN(CCO)CC1)c1ccccc1S2` | TAB113 | 10 | inhibitor, single point |
| 5 | `CCC(=O)c1ccc2c(c1)N(CCCN1CCN(CCO)CC1)c1ccccc1S2` | FAB9 | 17.78 | inhibitor, single point |
| 6 | `CCC(=O)c1ccc2c(c1)N(CCCN1CCN(CCO)CC1)c1ccccc1S2` | CP247 | 10 | inhibitor, partial curve, poor fit |
| 7 | `CCC(=O)c1ccc2c(c1)N(CCCN1CCN(CCO)CC1)c1ccccc1S2` | CP215 | 15.1 | inhibitor, single point |
| 8 | `CCC(=O)c1ccc2c(c1)N(CCCN1CCN(CCO)CC1)c1ccccc1S2` | CP297 | 16.94 | inhibitor, single point |
| 9 | `CCC(=O)c1ccc2c(c1)N(CCCN1CCN(CCO)CC1)c1ccccc1S2` | CP194 | 16.94 | inhibitor, single point |
| 10 | `CCC(=O)c1ccc2c(c1)N(CCCN1CCN(CCO)CC1)c1ccccc1S2` | CP266 | 15.1 | inhibitor, single point |
| 11 | `CCC(=O)c1ccc2c(c1)N(CCCN1CCN(CCO)CC1)c1ccccc1S2` | SC27B | 11.22 | inhibitor, single point |
| 12 | `CC(C)(C)NC(=O)[C@H]1CN(Cc2cccnc2)CCN1C[C@@H](O)C[C@@H](Cc1ccccc1)C(=O)N[C@H]1c2ccccc2C[C@H]1O` | DFO2036 | 12.59 | inhibitor, single point |
| 13 | `CC(C)(C)NC(=O)[C@H]1CN(Cc2cccnc2)CCN1C[C@@H](O)C[C@@H](Cc1ccccc1)C(=O)N[C@H]1c2ccccc2C[C@H]1O` | CP329 | 16.94 | inhibitor, single point |
| 14 | `CC(C)(C)NC(=O)[C@H]1CN(Cc2cccnc2)CCN1C[C@@H](O)C[C@@H](Cc1ccccc1)C(=O)N[C@H]1c2ccccc2C[C@H]1O` | FAB9 | 8.912 | inhibitor, single point |
| 15 | `CC(C)(C)NC(=O)[C@H]1CN(Cc2cccnc2)CCN1C[C@@H](O)C[C@@H](Cc1ccccc1)C(=O)N[C@H]1c2ccccc2C[C@H]1O` | CP238 | 10 | inhibitor, single point |
| 16 | `CC(C)(C)NC(=O)[C@H]1CN(Cc2cccnc2)CCN1C[C@@H](O)C[C@@H](Cc1ccccc1)C(=O)N[C@H]1c2ccccc2C[C@H]1O` | AA1029 | 11.22 | inhibitor, single point |
| 17 | `CC(C)(C)NC(=O)[C@H]1CN(Cc2cccnc2)CCN1C[C@@H](O)C[C@@H](Cc1ccccc1)C(=O)N[C@H]1c2ccccc2C[C@H]1O` | TAB165 | 8.912 | inhibitor, single point |
| 18 | `CC(C)(C)NC(=O)[C@H]1CN(Cc2cccnc2)CCN1C[C@@H](O)C[C@@H](Cc1ccccc1)C(=O)N[C@H]1c2ccccc2C[C@H]1O` | CP315 | 19.01 | inhibitor, single point |
| 19 | `CC(C)(C)NC(=O)[C@H]1CN(Cc2cccnc2)CCN1C[C@@H](O)C[C@@H](Cc1ccccc1)C(=O)N[C@H]1c2ccccc2C[C@H]1O` | CP286 | 11.22 | inhibitor, single point |
| 20 | `CN1CCCCC1CCN1c2ccccc2Sc2ccc(S(C)=O)cc21` (stereo not shown) | CP194 | 5.358 | inhibitor, partial curve |
| 21 | `CN1CCCCC1CCN1c2ccccc2Sc2ccc(S(C)=O)cc21` (stereo not shown) | CP286 | 4.467 | inhibitor, partial curve |
| 22 | `CN1CCCCC1CCN1c2ccccc2Sc2ccc(S(C)=O)cc21` (stereo not shown) | CP203 | 9.528 | inhibitor, partial curve, poor fit |
| 23 | `CN1CCCCC1CCN1c2ccccc2Sc2ccc(S(C)=O)cc21` (stereo not shown) | AS120 | 5.623 | inhibitor, partial curve |
| 24 | `CN1CCCCC1CCN1c2ccccc2Sc2ccc(S(C)=O)cc21` (stereo not shown) | GB4 | 4.256 | inhibitor, full curve |
| 25 | `CN1CCCCC1CCN1c2ccccc2Sc2ccc(S(C)=O)cc21` (stereo not shown) | CP265 | 3.981 | inhibitor, partial curve |
| 26 | `CN1CCCCC1CCN1c2ccccc2Sc2ccc(S(C)=O)cc21` (stereo not shown) | CP335 | 5.358 | inhibitor, partial curve |
| 27 | `CN1CCCCC1CCN1c2ccccc2Sc2ccc(S(C)=O)cc21` (stereo not shown) | N140 | 5.012 | inhibitor, partial curve |
| 28 | `CN1CCCCC1CCN1c2ccccc2Sc2ccc(S(C)=O)cc21` (stereo not shown) | Dd2 | 7.943 | inhibitor, partial curve |
| 29 | `CN1CCCCC1CCN1c2ccccc2Sc2ccc(S(C)=O)cc21` (stereo not shown) | CP191 | 7.08 | inhibitor, partial curve |
| 30 | `CN1CCCCC1CCN1c2ccccc2Sc2ccc(S(C)=O)cc21` (stereo not shown) | CP260 | 2.818 | inhibitor, full curve |
| 31 | `CN1CCCCC1CCN1c2ccccc2Sc2ccc(S(C)=O)cc21` (stereo not shown) | C2A | 11.22 | inhibitor, single point |
| 32 | `CN1CCCCC1CCN1c2ccccc2Sc2ccc(S(C)=O)cc21` (stereo not shown) | CP238 | 7.08 | inhibitor, partial curve |
| 33 | `CN1CCCCC1CCN1c2ccccc2Sc2ccc(S(C)=O)cc21` (stereo not shown) | P93_24 | 8.912 | inhibitor, single point |
| 34 | `CN1CCCCC1CCN1c2ccccc2Sc2ccc(S(C)=O)cc21` (stereo not shown) | CP237 | 7.943 | inhibitor, partial curve |
| 35 | `CN1CCCCC1CCN1c2ccccc2Sc2ccc(S(C)=O)cc21` (stereo not shown) | CP256 | 3.981 | inhibitor, partial curve |
| 36 | `CN1CCCCC1CCN1c2ccccc2Sc2ccc(S(C)=O)cc21` (stereo not shown) | CP291 | 5.358 | inhibitor, partial curve |

3 of the entries, repeated:

{"structure": "CN1CCCCC1CCN1c2ccccc2Sc2ccc(S(C)=O)cc21", "stereo": "stereo not shown", "tested on / at": "CP194", "fitted potency (µM)": "5.358", "curve as filed": "inhibitor, partial curve"}
{"structure": "CN1CCCCC1CCN1c2ccccc2Sc2ccc(S(C)=O)cc21", "stereo": "stereo not shown", "tested on / at": "P93_24", "fitted potency (µM)": "8.912", "curve as filed": "inhibitor, single point"}
{"structure": "CCC(=O)c1ccc2c(c1)N(CCCN1CCN(CCO)CC1)c1ccccc1S2", "tested on / at": "CP297", "fitted potency (µM)": "16.94", "curve as filed": "inhibitor, single point"}

From PubChem BioAssay record AID504749 (NCATS, 2011).